# Values quoted from earlier work, collected in patent US9408889B2, “Fusion peptide designed to reduce plaque bacteria and yeast in the oral cavity” (RUTGERS, THE STATE UNIVERSITY OF NEW JERSEY, priority 2011, dated 2016).
# For at least one compound, name, drawing or mass did not settle the structure.
# Columns and labels:
# oral bacteria = conditions: bacteria grown in a broth media; cited from earlier work
# bacteria = conditions: cited from earlier work
structure (smiles),measurement,setting,value
CN(C)[C@@H]1C(O)=C(C(N)=O)C(=O)[C@@]2(O)C(O)=C3C(=O)c4c(O)cccc4[C@@](C)(O)[C@H]3C[C@@H]12 [Tetracycline],effective concentration against oral bacteria,oral bacteria,10 to 20 µg/mL
same,"adherence of bacteria to drug-treated, washed SHA",bacteria,very few of these organisms were able to adhere to SHA
